# Laboratory results published in the supplement of paper PMC6411743.
# Amino acid sequences for entries named in this document (tags omitted). A change or cut given only in a name is not applied to a line headed by its entry.
# UniProt P35241, whole entry: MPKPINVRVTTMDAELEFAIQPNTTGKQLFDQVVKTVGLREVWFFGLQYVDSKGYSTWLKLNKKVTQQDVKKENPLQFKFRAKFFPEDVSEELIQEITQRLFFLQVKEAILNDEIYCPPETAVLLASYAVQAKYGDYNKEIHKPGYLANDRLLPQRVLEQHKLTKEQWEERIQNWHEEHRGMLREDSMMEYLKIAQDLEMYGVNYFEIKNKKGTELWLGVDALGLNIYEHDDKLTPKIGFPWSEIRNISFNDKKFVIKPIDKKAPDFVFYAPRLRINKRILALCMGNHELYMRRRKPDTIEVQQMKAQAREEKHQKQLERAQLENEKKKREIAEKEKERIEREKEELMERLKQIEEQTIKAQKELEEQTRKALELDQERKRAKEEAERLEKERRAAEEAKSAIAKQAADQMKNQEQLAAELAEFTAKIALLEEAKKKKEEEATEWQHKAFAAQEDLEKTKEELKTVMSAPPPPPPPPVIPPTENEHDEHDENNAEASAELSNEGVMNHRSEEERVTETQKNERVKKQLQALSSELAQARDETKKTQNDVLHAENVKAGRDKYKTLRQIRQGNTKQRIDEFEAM
# UniProt P21399: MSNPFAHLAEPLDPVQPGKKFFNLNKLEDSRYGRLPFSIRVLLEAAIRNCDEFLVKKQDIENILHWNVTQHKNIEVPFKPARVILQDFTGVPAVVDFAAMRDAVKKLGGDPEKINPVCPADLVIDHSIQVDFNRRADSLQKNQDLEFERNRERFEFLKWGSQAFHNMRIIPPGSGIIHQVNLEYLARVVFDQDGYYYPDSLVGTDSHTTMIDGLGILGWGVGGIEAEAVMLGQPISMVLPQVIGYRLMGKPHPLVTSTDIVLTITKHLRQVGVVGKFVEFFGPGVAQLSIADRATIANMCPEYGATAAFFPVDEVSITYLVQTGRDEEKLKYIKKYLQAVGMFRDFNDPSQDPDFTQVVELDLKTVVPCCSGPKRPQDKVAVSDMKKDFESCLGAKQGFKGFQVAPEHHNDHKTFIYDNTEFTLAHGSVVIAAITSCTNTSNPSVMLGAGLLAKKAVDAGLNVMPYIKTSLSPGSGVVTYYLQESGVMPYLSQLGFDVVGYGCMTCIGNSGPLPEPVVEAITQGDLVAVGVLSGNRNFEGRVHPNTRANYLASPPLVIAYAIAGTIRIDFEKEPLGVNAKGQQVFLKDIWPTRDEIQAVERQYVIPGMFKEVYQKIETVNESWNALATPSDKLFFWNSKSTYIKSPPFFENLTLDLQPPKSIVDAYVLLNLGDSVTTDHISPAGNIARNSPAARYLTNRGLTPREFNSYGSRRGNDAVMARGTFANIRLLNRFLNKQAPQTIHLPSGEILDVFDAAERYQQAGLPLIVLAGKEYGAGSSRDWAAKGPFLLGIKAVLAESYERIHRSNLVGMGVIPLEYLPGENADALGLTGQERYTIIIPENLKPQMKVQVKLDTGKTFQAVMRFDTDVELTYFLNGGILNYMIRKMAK
# UniProt P30825: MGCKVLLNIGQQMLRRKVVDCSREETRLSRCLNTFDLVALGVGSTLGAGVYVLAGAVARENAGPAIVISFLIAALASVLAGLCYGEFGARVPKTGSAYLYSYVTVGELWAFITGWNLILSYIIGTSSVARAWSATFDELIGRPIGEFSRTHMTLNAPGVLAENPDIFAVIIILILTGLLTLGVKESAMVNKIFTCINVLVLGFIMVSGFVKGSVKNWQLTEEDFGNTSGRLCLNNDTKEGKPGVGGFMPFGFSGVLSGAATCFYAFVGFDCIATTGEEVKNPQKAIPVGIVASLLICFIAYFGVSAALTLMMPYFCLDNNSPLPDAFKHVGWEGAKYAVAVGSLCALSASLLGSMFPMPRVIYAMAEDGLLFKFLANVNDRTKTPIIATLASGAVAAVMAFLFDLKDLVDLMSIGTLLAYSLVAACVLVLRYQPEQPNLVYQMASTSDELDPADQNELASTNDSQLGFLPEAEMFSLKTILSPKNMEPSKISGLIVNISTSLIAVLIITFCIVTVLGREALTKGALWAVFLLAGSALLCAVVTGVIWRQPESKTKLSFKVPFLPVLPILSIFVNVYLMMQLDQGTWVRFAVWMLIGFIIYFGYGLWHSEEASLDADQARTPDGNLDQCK
# UniProt P28482, whole entry: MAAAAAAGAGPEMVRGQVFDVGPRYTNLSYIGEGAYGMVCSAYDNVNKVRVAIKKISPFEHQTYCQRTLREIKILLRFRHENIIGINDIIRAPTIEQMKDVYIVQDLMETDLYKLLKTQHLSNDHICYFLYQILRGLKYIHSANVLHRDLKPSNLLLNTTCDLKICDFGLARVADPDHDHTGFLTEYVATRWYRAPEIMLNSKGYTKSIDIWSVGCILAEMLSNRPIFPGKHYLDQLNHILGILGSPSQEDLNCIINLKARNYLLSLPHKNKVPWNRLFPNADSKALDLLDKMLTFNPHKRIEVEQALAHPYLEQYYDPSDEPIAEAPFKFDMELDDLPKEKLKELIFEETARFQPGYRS
# UniProt P30038: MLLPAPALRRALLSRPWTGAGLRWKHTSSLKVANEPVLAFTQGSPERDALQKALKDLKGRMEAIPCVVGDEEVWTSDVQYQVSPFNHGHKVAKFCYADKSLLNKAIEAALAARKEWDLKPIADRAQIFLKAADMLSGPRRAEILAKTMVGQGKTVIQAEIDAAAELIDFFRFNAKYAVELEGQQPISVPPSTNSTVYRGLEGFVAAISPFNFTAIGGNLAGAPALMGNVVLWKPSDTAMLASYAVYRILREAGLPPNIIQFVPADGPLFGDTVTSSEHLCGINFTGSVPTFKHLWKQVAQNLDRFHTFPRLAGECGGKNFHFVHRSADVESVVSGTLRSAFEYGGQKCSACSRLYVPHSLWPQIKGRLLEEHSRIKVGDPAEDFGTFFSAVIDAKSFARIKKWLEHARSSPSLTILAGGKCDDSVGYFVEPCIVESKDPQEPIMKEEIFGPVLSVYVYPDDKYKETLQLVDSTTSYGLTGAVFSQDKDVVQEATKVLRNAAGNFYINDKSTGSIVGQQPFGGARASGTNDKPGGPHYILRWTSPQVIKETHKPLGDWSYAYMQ
# UniProt P17050: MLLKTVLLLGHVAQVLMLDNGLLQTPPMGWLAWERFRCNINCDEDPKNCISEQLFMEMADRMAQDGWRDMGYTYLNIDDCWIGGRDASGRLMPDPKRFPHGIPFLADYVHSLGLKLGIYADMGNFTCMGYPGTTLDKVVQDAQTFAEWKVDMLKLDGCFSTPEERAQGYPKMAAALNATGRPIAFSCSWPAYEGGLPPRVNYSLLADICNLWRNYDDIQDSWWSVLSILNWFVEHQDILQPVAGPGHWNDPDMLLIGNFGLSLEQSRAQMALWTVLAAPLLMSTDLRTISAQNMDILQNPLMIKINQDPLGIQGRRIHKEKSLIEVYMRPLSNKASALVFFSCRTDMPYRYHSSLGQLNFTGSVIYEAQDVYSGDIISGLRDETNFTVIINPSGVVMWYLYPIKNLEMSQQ
# UniProt P31751: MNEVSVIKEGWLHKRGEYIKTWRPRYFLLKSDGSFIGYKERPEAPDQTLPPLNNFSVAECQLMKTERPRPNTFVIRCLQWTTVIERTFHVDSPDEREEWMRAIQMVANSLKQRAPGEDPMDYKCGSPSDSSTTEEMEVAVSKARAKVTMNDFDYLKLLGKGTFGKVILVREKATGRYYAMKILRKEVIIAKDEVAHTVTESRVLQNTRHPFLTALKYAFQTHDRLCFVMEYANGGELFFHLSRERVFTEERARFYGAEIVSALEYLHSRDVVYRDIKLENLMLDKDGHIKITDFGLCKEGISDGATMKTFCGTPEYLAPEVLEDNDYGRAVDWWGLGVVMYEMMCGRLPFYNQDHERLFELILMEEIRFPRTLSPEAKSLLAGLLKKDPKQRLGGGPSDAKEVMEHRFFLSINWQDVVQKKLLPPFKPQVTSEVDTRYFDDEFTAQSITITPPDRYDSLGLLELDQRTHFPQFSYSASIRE
# UniProt P32455: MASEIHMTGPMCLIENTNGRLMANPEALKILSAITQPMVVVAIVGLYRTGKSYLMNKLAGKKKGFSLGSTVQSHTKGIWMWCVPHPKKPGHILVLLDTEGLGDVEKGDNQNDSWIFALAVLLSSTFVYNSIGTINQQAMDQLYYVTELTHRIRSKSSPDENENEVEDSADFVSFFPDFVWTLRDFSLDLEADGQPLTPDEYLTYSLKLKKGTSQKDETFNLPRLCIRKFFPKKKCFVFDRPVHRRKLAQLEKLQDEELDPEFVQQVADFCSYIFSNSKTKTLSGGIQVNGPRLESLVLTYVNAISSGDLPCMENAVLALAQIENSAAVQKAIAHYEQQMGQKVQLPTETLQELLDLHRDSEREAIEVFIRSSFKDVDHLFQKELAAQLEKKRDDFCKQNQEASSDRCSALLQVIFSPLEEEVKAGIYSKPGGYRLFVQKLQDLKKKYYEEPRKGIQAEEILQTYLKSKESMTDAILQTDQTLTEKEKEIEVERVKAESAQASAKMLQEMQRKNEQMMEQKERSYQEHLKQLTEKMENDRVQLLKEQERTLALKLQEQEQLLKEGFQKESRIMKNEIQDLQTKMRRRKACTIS
# UniProt P35610: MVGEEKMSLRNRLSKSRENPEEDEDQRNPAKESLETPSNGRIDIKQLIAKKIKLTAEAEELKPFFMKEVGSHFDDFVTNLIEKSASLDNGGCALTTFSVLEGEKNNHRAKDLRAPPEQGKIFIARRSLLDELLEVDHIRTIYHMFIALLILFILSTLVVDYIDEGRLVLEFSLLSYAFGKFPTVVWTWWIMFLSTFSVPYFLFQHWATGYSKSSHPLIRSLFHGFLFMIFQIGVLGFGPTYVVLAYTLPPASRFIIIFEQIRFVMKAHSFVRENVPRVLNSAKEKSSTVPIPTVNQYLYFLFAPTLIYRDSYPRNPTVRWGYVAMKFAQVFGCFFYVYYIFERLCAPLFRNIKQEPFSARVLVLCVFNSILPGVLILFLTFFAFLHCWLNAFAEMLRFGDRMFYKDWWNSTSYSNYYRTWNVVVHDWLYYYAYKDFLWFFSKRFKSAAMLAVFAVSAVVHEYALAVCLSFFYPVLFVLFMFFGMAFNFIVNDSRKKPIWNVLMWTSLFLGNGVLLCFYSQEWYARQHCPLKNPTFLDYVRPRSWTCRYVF
# UniProt P30043: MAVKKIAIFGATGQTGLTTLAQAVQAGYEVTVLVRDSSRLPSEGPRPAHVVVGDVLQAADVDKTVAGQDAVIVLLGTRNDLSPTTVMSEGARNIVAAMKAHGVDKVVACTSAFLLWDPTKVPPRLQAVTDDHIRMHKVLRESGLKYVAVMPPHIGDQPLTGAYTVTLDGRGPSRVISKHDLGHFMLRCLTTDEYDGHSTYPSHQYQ
# UniProt P27707: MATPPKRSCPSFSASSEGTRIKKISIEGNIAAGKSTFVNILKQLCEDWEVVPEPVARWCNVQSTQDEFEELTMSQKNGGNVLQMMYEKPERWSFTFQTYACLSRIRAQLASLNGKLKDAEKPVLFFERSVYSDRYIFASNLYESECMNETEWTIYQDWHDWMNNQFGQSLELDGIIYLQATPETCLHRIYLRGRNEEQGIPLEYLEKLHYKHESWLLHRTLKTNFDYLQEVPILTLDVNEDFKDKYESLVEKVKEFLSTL
# UniProt P22059, whole entry: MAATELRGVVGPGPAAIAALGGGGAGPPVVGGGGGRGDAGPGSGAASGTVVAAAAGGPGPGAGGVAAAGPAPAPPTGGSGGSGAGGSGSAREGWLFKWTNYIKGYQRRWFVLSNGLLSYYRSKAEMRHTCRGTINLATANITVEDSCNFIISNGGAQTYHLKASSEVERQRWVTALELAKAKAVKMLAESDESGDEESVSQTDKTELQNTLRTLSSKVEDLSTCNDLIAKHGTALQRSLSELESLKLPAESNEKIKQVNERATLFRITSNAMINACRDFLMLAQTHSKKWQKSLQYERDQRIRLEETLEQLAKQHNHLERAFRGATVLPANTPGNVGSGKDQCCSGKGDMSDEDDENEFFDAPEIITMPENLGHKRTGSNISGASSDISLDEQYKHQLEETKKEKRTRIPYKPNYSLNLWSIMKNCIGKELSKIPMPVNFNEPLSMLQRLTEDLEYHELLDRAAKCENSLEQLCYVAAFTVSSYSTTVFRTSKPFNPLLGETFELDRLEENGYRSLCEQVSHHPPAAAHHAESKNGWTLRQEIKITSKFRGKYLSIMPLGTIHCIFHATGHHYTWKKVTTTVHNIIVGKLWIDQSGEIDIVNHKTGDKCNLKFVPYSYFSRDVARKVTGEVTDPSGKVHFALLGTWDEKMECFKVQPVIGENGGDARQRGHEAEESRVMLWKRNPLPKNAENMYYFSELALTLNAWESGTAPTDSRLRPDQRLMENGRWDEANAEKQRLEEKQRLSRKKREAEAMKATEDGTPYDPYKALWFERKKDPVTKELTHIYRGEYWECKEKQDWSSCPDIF
# UniProt P19397: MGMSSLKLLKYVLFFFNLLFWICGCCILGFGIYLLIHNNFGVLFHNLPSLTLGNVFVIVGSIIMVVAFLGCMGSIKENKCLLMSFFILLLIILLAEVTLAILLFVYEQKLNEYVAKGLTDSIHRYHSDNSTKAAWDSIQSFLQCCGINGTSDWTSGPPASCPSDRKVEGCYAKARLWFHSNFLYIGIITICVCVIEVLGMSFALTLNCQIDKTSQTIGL
# ± gives the standard deviation of the averaged measurements. The entries are a selection whose mix differs from that of the whole data set. Most values lie at the level of the controls, where differences are scatter.
# Compound: Nc1ncnc2c1ncn2[C@@H]1O[C@H](COP(=O)(O)OP(=O)(O)OP(=O)(O)O)[C@@H](O)[C@H]1O [adenosine triphosphate]
# Experiment: NP40-soluble protein abundance relative to vehicle (solubility fold change) (ratio); higher = more soluble protein in presence of ATP
# Outline: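 Jurkat crude lysate prepared with a Dounce homogeniser was treated at eight concentrations spanning 0.1 to 10 mM, 10 min at room temperature then 3 min at 37 °C. Solubilisation with 0.8% NP40 and benzonase and ultracentrifugation preceded TMT labelling of the supernatant for LC-MS/MS. Fold change against the detergent-processed vehicle was determined per replicate from vsn-normalised intensities, across three independent experiments.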
target,measurement,setting,value
UniProt P32519 and related entries,NP40-soluble protein abundance,concentration: 0.1mM,0.987 ± 0.012
same,NP40-soluble protein abundance,concentration: 0.5mM,1 ± 0.07
CMPK1 (UniProt P30085),NP40-soluble protein abundance,concentration: 0.1mM,0.987 ± 0.015
same,NP40-soluble protein abundance,concentration: 0.5mM,1.01 ± 0.048
ERCC3 (UniProt P19447),NP40-soluble protein abundance,concentration: 0.1mM,0.993 ± 0.056
same,NP40-soluble protein abundance,concentration: 0.5mM,1.007 ± 0.0086
PEBP1 (UniProt P30086),NP40-soluble protein abundance,concentration: 0.1mM,0.987 ± 0.018
same,NP40-soluble protein abundance,concentration: 0.5mM,0.982 ± 0.043
UniProt P35241 and related entries,NP40-soluble protein abundance,concentration: 0.1mM,1 ± 0.039
same,NP40-soluble protein abundance,concentration: 0.5mM,1.02 ± 0.074
ACO1 (UniProt P21399),NP40-soluble protein abundance,concentration: 0.1mM,1.05 ± 0.082
same,NP40-soluble protein abundance,concentration: 0.5mM,1.03 ± 0.065
KIF5B (UniProt P33176),NP40-soluble protein abundance,concentration: 0.1mM,0.998 ± 0.023
same,NP40-soluble protein abundance,concentration: 0.5mM,1.01 ± 0.065
RRM1 (UniProt P23921),NP40-soluble protein abundance,concentration: 0.1mM,1.04 ± 0.092
same,NP40-soluble protein abundance,concentration: 0.5mM,1.01 ± 0.074
POLR2C (UniProt P19387),NP40-soluble protein abundance,concentration: 0.1mM,1.02 ± 0.054
same,NP40-soluble protein abundance,concentration: 0.5mM,1.05 ± 0.027
UniProt P31350 and related entries,NP40-soluble protein abundance,concentration: 0.1mM,1.08 ± 0.13
same,NP40-soluble protein abundance,concentration: 0.5mM,1.07 ± 0.15
CBL (UniProt P22681),NP40-soluble protein abundance,concentration: 0.1mM,1.024 ± 0.0096
same,NP40-soluble protein abundance,concentration: 0.5mM,1.03 ± 0.048
MAT2A (UniProt P31153),NP40-soluble protein abundance,concentration: 0.1mM,1 ± 0.052
same,NP40-soluble protein abundance,concentration: 0.5mM,1.01 ± 0.056
PLCG2 (UniProt P16885),NP40-soluble protein abundance,concentration: 0.1mM,1.07 ± 0.072
same,NP40-soluble protein abundance,concentration: 0.5mM,1.05 ± 0.088
UniProt P33121 and related entries,NP40-soluble protein abundance,concentration: 0.1mM,1.08 ± 0.066
same,NP40-soluble protein abundance,concentration: 0.5mM,1.06 ± 0.096
PSMB5 (UniProt P28074),NP40-soluble protein abundance,concentration: 0.1mM,0.965 ± 0.057
same,NP40-soluble protein abundance,concentration: 0.5mM,0.964 ± 0.031
UniProt P32780 and related entries,NP40-soluble protein abundance,concentration: 0.1mM,0.971 ± 0.031
same,NP40-soluble protein abundance,concentration: 0.5mM,1.02 ± 0.049
UniProt P20339 and related entries,NP40-soluble protein abundance,concentration: 0.1mM,0.972 ± 0.082
same,NP40-soluble protein abundance,concentration: 0.5mM,0.976 ± 0.026
UniProt P35613 and related entries,NP40-soluble protein abundance,concentration: 0.1mM,0.943 ± 0.028
same,NP40-soluble protein abundance,concentration: 0.5mM,0.917 ± 0.061
SLC7A1 (UniProt P30825),NP40-soluble protein abundance,concentration: 0.1mM,0.969 ± 0.016
same,NP40-soluble protein abundance,concentration: 0.5mM,0.944 ± 0.063
AGL (UniProt P35573),NP40-soluble protein abundance,concentration: 0.1mM,1.04 ± 0.069
same,NP40-soluble protein abundance,concentration: 0.5mM,1.05 ± 0.048
UniProt P28482,NP40-soluble protein abundance,concentration: 0.1mM,0.987 ± 0.027
same,NP40-soluble protein abundance,concentration: 0.5mM,1.02 ± 0.033
UniProt P23229 and related entries,NP40-soluble protein abundance,concentration: 0.1mM,0.967 ± 0.043
same,NP40-soluble protein abundance,concentration: 0.5mM,0.965 ± 0.024
P30042 (UniProt P0DPI2),NP40-soluble protein abundance,concentration: 0.1mM,1.03 ± 0.043
same,NP40-soluble protein abundance,concentration: 0.5mM,1.06 ± 0.05
ALDH4A1 (UniProt P30038),NP40-soluble protein abundance,concentration: 0.1mM,0.997 ± 0.037
same,NP40-soluble protein abundance,concentration: 0.5mM,1.01 ± 0.022
NAGA (UniProt P17050),NP40-soluble protein abundance,concentration: 0.1mM,0.983 ± 0.05
same,NP40-soluble protein abundance,concentration: 0.5mM,0.974 ± 0.016
ATP6V1B2 (UniProt P21281),NP40-soluble protein abundance,concentration: 0.1mM,1.03 ± 0.037
same,NP40-soluble protein abundance,concentration: 0.5mM,1.03 ± 0.026
UniProt P16989 and related entries,NP40-soluble protein abundance,concentration: 0.1mM,0.934 ± 0.057
same,NP40-soluble protein abundance,concentration: 0.5mM,0.938 ± 0.018
AKT2 (UniProt P31751),NP40-soluble protein abundance,concentration: 0.1mM,1.06 ± 0.088
same,NP40-soluble protein abundance,concentration: 0.5mM,1.02 ± 0.081
GTF2F1 (UniProt P35269),NP40-soluble protein abundance,concentration: 0.1mM,0.982 ± 0.029
same,NP40-soluble protein abundance,concentration: 0.5mM,0.986 ± 0.041
UniProt P30048 and related entries,NP40-soluble protein abundance,concentration: 0.1mM,1 ± 0.042
same,NP40-soluble protein abundance,concentration: 0.5mM,1.03 ± 0.027
MAN1A1 (UniProt P33908),NP40-soluble protein abundance,concentration: 0.1mM,0.9553 ± 0.0086
same,NP40-soluble protein abundance,concentration: 0.5mM,0.992 ± 0.019
GBP1 (UniProt P32455),NP40-soluble protein abundance,concentration: 0.1mM,0.995 ± 0.012
same,NP40-soluble protein abundance,concentration: 0.5mM,0.999 ± 0.068
same,NP40-soluble protein abundance,concentration: 1mM,0.968 ± 0.053
same,NP40-soluble protein abundance,concentration: 2mM,0.96 ± 0.0051
same,NP40-soluble protein abundance,concentration: 4mM,0.945 ± 0.011
same,NP40-soluble protein abundance,concentration: 6mM,0.979 ± 0.015
same,NP40-soluble protein abundance,concentration: 8mM,0.922 ± 0.018
same,NP40-soluble protein abundance,concentration: 10mM,0.936 ± 0.03
GNA15 (UniProt P30679),NP40-soluble protein abundance,concentration: 0.1mM,1.08 ± 0.11
same,NP40-soluble protein abundance,concentration: 0.5mM,1.02 ± 0.025
SOAT1 (UniProt P35610),NP40-soluble protein abundance,concentration: 0.1mM,1.09 ± 0.024
same,NP40-soluble protein abundance,concentration: 0.5mM,1.04 ± 0.072
same,NP40-soluble protein abundance,concentration: 1mM,1.02 ± 0.042
same,NP40-soluble protein abundance,concentration: 2mM,1 ± 0.028
same,NP40-soluble protein abundance,concentration: 4mM,0.999 ± 0.055
same,NP40-soluble protein abundance,concentration: 6mM,0.97 ± 0.029
same,NP40-soluble protein abundance,concentration: 8mM,1.03 ± 0.019
same,NP40-soluble protein abundance,concentration: 10mM,0.971 ± 0.041
UniProt P28331 and related entries,NP40-soluble protein abundance,concentration: 0.1mM,0.991 ± 0.04
same,NP40-soluble protein abundance,concentration: 0.5mM,1 ± 0.048
ATIC (UniProt P31939),NP40-soluble protein abundance,concentration: 0.1mM,1.03 ± 0.09
same,NP40-soluble protein abundance,concentration: 0.5mM,1.05 ± 0.11
BLVRB (UniProt P30043),NP40-soluble protein abundance,concentration: 0.1mM,1.01 ± 0.032
same,NP40-soluble protein abundance,concentration: 0.5mM,0.9895 ± 0.0052
AGA (UniProt P20933),NP40-soluble protein abundance,concentration: 0.1mM,0.911 ± 0.091
same,NP40-soluble protein abundance,concentration: 0.5mM,0.874 ± 0.075
same,NP40-soluble protein abundance,concentration: 1mM,0.925 ± 0.059
same,NP40-soluble protein abundance,concentration: 2mM,0.964 ± 0.07
same,NP40-soluble protein abundance,concentration: 4mM,0.978 ± 0.079
same,NP40-soluble protein abundance,concentration: 6mM,0.94 ± 0.081
same,NP40-soluble protein abundance,concentration: 8mM,0.914 ± 0.064
same,NP40-soluble protein abundance,concentration: 10mM,0.876 ± 0.071
GRK5 (UniProt P34947),NP40-soluble protein abundance,concentration: 0.1mM,1.21 ± 0.024
same,NP40-soluble protein abundance,concentration: 0.5mM,1.19 ± 0.15
SFPQ (UniProt P23246),NP40-soluble protein abundance,concentration: 0.1mM,1.04 ± 0.02
same,NP40-soluble protein abundance,concentration: 0.5mM,1.08 ± 0.058
same,NP40-soluble protein abundance,concentration: 1mM,1.125 ± 0.0082
same,NP40-soluble protein abundance,concentration: 2mM,1.302 ± 0.0053
same,NP40-soluble protein abundance,concentration: 4mM,1.67 ± 0.042
same,NP40-soluble protein abundance,concentration: 6mM,1.72 ± 0.18
same,NP40-soluble protein abundance,concentration: 8mM,1.81 ± 0.11
same,NP40-soluble protein abundance,concentration: 10mM,1.68 ± 0.17
ZNF24 (UniProt P17028),NP40-soluble protein abundance,concentration: 0.1mM,1.02 ± 0.023
same,NP40-soluble protein abundance,concentration: 0.5mM,1.03 ± 0.049
UniProt P21675 and related entries,NP40-soluble protein abundance,concentration: 0.1mM,1.05 ± 0.059
same,NP40-soluble protein abundance,concentration: 0.5mM,1.14 ± 0.081
same,NP40-soluble protein abundance,concentration: 1mM,1.11 ± 0.067
same,NP40-soluble protein abundance,concentration: 2mM,1.11 ± 0.048
same,NP40-soluble protein abundance,concentration: 4mM,1.11 ± 0.066
same,NP40-soluble protein abundance,concentration: 6mM,1.15 ± 0.14
same,NP40-soluble protein abundance,concentration: 8mM,1.2 ± 0.079
same,NP40-soluble protein abundance,concentration: 10mM,1.19 ± 0.091
DCK (UniProt P27707),NP40-soluble protein abundance,concentration: 0.1mM,0.99 ± 0.074
same,NP40-soluble protein abundance,concentration: 0.5mM,1.04 ± 0.053
same,NP40-soluble protein abundance,concentration: 1mM,0.955 ± 0.067
same,NP40-soluble protein abundance,concentration: 2mM,0.98 ± 0.052
same,NP40-soluble protein abundance,concentration: 4mM,0.914 ± 0.046
same,NP40-soluble protein abundance,concentration: 6mM,0.935 ± 0.093
same,NP40-soluble protein abundance,concentration: 8mM,0.933 ± 0.03
same,NP40-soluble protein abundance,concentration: 10mM,0.948 ± 0.044
ITPKB (UniProt P27987),NP40-soluble protein abundance,concentration: 0.1mM,0.921 ± 0.028
same,NP40-soluble protein abundance,concentration: 0.5mM,0.924 ± 0.16
OSBP (UniProt P22059),NP40-soluble protein abundance,concentration: 0.1mM,1.05 ± 0.065
same,NP40-soluble protein abundance,concentration: 0.5mM,1.03 ± 0.063
UniProt P25786 and related entries,NP40-soluble protein abundance,concentration: 0.1mM,0.976 ± 0.029
same,NP40-soluble protein abundance,concentration: 0.5mM,0.962 ± 0.014
ATF1 (UniProt P18846),NP40-soluble protein abundance,concentration: 0.1mM,1.05 ± 0.082
same,NP40-soluble protein abundance,concentration: 0.5mM,0.945 ± 0.056
same,NP40-soluble protein abundance,concentration: 1mM,0.986 ± 0.2
same,NP40-soluble protein abundance,concentration: 2mM,0.951 ± 0.033
same,NP40-soluble protein abundance,concentration: 4mM,1.02 ± 0.14
same,NP40-soluble protein abundance,concentration: 6mM,0.999 ± 0.054
same,NP40-soluble protein abundance,concentration: 8mM,0.97 ± 0.074
same,NP40-soluble protein abundance,concentration: 10mM,0.917 ± 0.068
CD53 (UniProt P19397),NP40-soluble protein abundance,concentration: 0.1mM,0.84 ± 0.11
same,NP40-soluble protein abundance,concentration: 0.5mM,0.784 ± 0.13
same,NP40-soluble protein abundance,concentration: 1mM,0.898 ± 0.042
same,NP40-soluble protein abundance,concentration: 2mM,0.833 ± 0.05
same,NP40-soluble protein abundance,concentration: 4mM,0.85 ± 0.06
same,NP40-soluble protein abundance,concentration: 6mM,0.832 ± 0.049
same,NP40-soluble protein abundance,concentration: 8mM,0.823 ± 0.07
same,NP40-soluble protein abundance,concentration: 10mM,0.791 ± 0.093

# Two records picked at random from those above, as already listed:
target,measurement,setting,value
GBP1 (UniProt P32455),NP40-soluble protein abundance,concentration: 10mM,0.936 ± 0.03
UniProt P35241 and related entries,NP40-soluble protein abundance,concentration: 0.5mM,1.02 ± 0.074

# A different layout for some results above:
target	measurement	setting	value
NAGA (UniProt P17050)	NP40-soluble protein abundance	concentration: 0.5mM	0.974 ± 0.016
AKT2 (UniProt P31751)	NP40-soluble protein abundance	concentration: 0.5mM	1.02 ± 0.081
GBP1 (UniProt P32455)	NP40-soluble protein abundance	concentration: 6mM	0.979 ± 0.015
BLVRB (UniProt P30043)	NP40-soluble protein abundance	concentration: 0.5mM	0.9895 ± 0.0052
SFPQ (UniProt P23246)	NP40-soluble protein abundance	concentration: 0.5mM	1.08 ± 0.058
